Assay [1] concerns the target T1, Rac GTPase activating protein 1 (human (endogenous in NOZ and GBC-SD)) (UniProt Q9H0H5).
T1 sequence: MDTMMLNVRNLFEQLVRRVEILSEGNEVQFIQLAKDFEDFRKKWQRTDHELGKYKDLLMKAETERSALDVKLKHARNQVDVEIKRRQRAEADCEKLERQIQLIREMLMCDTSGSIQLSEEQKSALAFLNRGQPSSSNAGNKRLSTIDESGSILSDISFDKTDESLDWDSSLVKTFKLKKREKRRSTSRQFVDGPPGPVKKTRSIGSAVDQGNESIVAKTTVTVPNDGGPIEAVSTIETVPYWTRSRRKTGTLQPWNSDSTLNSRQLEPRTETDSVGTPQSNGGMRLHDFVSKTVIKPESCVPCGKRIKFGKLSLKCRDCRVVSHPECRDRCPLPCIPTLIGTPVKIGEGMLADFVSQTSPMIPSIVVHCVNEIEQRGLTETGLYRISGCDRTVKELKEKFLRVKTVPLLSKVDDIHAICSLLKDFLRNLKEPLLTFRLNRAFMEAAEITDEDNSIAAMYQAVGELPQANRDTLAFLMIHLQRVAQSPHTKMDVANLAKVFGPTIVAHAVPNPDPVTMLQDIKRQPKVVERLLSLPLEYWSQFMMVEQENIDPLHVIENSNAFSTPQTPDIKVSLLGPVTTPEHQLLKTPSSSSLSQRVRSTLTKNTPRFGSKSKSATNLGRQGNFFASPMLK
Description: co-IP; endogenous co-IP; protein G magnetic beads with anti-RACGAP1 or anti-LIG3 antibody (4 h), then NOZ and GBC-SD cell lysates overnight at 4 °C; western blotting.

Assay [2] has as its target T2, DNA ligase 3 (human (endogenous in NOZ and GBC-SD)) (UniProt P49916).
T2 sequence: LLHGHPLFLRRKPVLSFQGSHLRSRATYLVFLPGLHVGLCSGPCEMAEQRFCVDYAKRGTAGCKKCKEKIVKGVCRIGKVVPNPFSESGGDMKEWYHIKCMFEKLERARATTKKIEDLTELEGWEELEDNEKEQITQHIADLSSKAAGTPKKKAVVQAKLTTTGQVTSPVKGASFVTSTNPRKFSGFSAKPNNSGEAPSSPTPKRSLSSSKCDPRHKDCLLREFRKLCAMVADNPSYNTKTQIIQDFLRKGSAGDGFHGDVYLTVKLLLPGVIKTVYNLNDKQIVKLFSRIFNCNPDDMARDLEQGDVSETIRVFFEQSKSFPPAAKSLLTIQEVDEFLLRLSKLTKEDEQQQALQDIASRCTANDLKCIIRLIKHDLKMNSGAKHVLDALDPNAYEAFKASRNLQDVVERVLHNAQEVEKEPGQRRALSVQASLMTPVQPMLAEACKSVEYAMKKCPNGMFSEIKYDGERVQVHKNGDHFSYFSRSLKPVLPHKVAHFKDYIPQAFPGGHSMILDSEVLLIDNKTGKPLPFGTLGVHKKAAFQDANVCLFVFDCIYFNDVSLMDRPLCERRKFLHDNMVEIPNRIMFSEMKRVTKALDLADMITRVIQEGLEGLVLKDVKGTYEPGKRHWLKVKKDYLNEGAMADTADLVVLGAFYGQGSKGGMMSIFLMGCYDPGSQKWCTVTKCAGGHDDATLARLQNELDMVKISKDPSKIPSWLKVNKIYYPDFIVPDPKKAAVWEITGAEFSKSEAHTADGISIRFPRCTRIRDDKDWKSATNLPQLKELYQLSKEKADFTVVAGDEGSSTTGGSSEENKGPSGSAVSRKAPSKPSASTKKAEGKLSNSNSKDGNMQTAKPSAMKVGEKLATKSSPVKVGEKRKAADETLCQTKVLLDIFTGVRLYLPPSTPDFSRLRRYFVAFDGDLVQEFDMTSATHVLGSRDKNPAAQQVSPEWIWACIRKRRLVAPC
The description is as above.

Results are given in words; binding and its absence hold for the method and conditions named. In cells and extracts the contact can be indirect. Some results given as binding are weak or reduced against the parent protein; the word gives no strength.

B1: DNA ligase 3 (protein, UniProt P49916 43-1009)
chain: T2 sequence
As to B1, the binding result in assay [1] is given as “binds”.

B2: Rac GTPase activating protein 1 (protein, UniProt Q9H0H5 1-632)
chain: T1 sequence
Turning to B2, the binding result in assay [2] is listed as “binds”.
